Source: PubChem BioAssay AID1439 (NMMLSC, 2008)
About 770 (0.35%) of roughly 220,000 compounds were called active. The inconclusive results got no clear call from the source; some entries with a clear call stand among them for comparison. Rule as the data show it: active = binding response below about 49% or above about 150%; inconclusive = no clear call, values can overlap the other calls; inactive = in between.

Sequences of proteins named here, by UniProt entry; tags and fusion partners are left off.
UniProt P09471, whole entry, looked up: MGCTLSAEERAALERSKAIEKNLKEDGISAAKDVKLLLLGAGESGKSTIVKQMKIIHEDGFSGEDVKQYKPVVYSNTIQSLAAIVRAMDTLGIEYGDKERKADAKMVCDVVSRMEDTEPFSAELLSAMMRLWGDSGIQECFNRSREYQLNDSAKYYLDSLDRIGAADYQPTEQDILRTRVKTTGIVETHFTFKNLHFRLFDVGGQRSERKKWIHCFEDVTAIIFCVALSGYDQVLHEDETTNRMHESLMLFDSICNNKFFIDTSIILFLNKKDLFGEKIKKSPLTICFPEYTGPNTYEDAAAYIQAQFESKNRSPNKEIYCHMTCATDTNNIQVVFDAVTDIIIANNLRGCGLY

What follows are compounds tested against Guanine nucleotide-binding protein G(o) subunit alpha (Homo sapiens) (UniProt P09471) (assay: RGS7-Galphao binding modulators, primary screen, biochemical, multiplexed bead flow cytometry (AID 1439;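 also: fluorescent Galphao held in activated GDP-AlF4 state binding bead-coupled RGS7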)). Details: at 10 µM, actives lie on both sides.
In the case of COC(=O)N(NC(=O)C(O)(C(C)C)C(C)C)c1ccccc1, the binding response (% of control) was inconclusive: 106%.
With COc1ccc2ccc(=O)oc2c1CC(O)C(C)(C)O (configuration not stated) the binding response (% of control) was inconclusive: 134%.
O=C(Cn1cc(C(F)(F)F)ccc1=O)Nc1cccc(S(=O)(=O)N2CCOCC2)c1 was tested, and the binding response (% of control) was inactive: 136%.
For COc1ccc(Nc2cc(Cl)nc(N)n2)cc1OC, the binding response (% of control) was inactive: 103%.
In the case of CC12CC3(C)CC(C)(C1)CC(C(N)=O)(C2)C3, the binding response (% of control) was inconclusive: 85.4%.
CCC(=O)Nc1ccc2c(c1)nc(CCN1CCN(c3ccccc3)CC1)n2C was tested, and the binding response (% of control) was inconclusive: 96.7%.
Clc1ccc(Nc2c3c(nc4ncnn24)CCC3)cc1 was tested, and the binding response (% of control) was inconclusive: 98.4%.
NC(=S)Nc1c(Cl)cccc1Cl was tested, and the binding response (% of control) was inconclusive: 102%.
For CSc1n[nH]c(=S)n1N, the binding response (% of control) was inconclusive: 115%.
For Cc1cc(C(=O)NCCC(C)C)c2ccccc2n1, the binding response (% of control) was inconclusive: -362%.
CN(NC(=O)c1ccccc1F)c1nc(C(F)(F)F)nc2ccccc12 was tested, and the binding response (% of control) was inconclusive: 92.2%.
For O=C(CN1C(=O)C2C3C=CC(C3)C2C1=O)Nc1ccc(S(=O)(=O)Nc2nccs2)cc1 (configuration not stated), the binding response (% of control) was inconclusive: 64.1%.
COc1cccc(-n2c(C)nc3cc(C(=O)O)ccc32)c1 was tested, and the binding response (% of control) was active: 160% [activator].
With CC(/C=C1\SC(=S)N(C(C(=O)O)c2ccccc2)C1=O)=C\c1ccccc1 (configuration not stated) the binding response (% of control) was inconclusive: 38%.
With CCCCN(CC)C(=O)c1ccc(Cl)cc1 the binding response (% of control) was inconclusive: 115%.
CO/N=C(\N)c1nonc1N was tested, and the binding response (% of control) was inconclusive: 117%.
In the case of CC1(C)Cc2c(sc3nc(C4CC4)n(N)c(=O)c23)CO1, the binding response (% of control) was inconclusive: 93.5%.
With CCCCCn1cnc2c(sc3nc4c(cc32)CSC(C)(C)C4)c1=O the binding response (% of control) was inactive: 104%.
With CCOc1ccccc1C(=O)NCCC(=O)O the binding response (% of control) was inactive: 109%.
In the case of Cc1ccc(-c2nc3c(c(=O)c4ccccc4n3C)c(=O)n2Cc2ccco2)cc1, the binding response (% of control) was inconclusive: 98.9%.
For Cc1cc(/C(N)=N/OC(=O)c2ccccc2Cl)no1, the binding response (% of control) was inconclusive: -159%.
C=CCn1c(CNC(=O)c2ccco2)nnc1SCC(=O)Nc1cccc(F)c1 was tested, and the binding response (% of control) was inconclusive: 123%.
For Clc1ccc(C2[C@H]3CN(Cc4cccnc4)[C@H](c4ccccc4)C34CC2(c2ccccc2)C4)cn1 (some centres not stated), the binding response (% of control) was inconclusive: 68.4%.
CC(=O)Nc1ccc(/C=C/c2ccc3cccc([N+](=O)[O-])c3n2)cc1 was tested, and the binding response (% of control) was inconclusive: 294%.
With Cc1ccc(C(=O)Nc2ccc(S(=O)(=O)N3CCOCC3)cc2)cc1 the binding response (% of control) was active: 365% [activator].
In the case of COC(=O)c1ccc(C2CC(=O)Nc3cc(OC)c(OC)c(OC)c32)cc1 (configuration not stated), the binding response (% of control) was inactive: 97.7%.
For CNC(=O)Cc1csc2ccc(C)cc12, the binding response (% of control) was inconclusive: 195%.
In the case of CC(=O)NCCCOc1ccc([N+](=O)[O-])cc1Cl, the binding response (% of control) was inconclusive: 110%.
For CC1CCCCC1NC1=NCCCS1 (configuration not stated), the binding response (% of control) was inconclusive: 95.3%.
With O=S(=O)(CCc1ccccc1)N1CCOCC1 the binding response (% of control) was inactive: 67.6%.
In the case of COc1ccc(C(=O)COC(=O)c2ccccc2NS(=O)(=O)c2ccc(O)c([N+](=O)[O-])c2)cc1, the binding response (% of control) was inconclusive: 104%.
In the case of O=C1N/C(=N\N=C\c2cccs2)SC1Cc1ccc(Cl)c(Cl)c1 (configuration not stated), the binding response (% of control) was inactive: 87.4%.
In the case of Cc1[nH]c2ccccc2c1N=Nc1ccccc1F, the binding response (% of control) was inconclusive: 104%.
With O=C(/C(=N/O)n1cncn1)c1ccccc1Cl the binding response (% of control) was inconclusive: 109%.
Oc1ccc(N=Nc2ccc(Br)cc2)c(O)c1 was tested, and the binding response (% of control) was inconclusive: 87.1%.
In the case of O=C(O)c1cccc2c(/C=N/Nc3ccccn3)c[nH]c12, the binding response (% of control) was inconclusive: 112%.
S=c1[nH]nc(-c2n[nH]c3c2CCC3)n1/N=C/C=C/c1ccccc1 was tested, and the binding response (% of control) was inconclusive: 93.4%.
With Nc1nc(SCC(=O)Nc2cc(C(F)(F)F)ccc2N2CCOCC2)n[nH]1 the binding response (% of control) was active: 24.1%.
In the case of Cc1c(N=NC2=C(O)CC(C)(C)CC2=O)cc2c(c1[N+](=O)[O-])C(C)(C)CC2(C)C, the binding response (% of control) was inconclusive: 83.5%.
In the case of Cc1ccc(NC(=O)Cc2ccccc2)c(C)c1, the binding response (% of control) was inconclusive: 93%.
In the case of Cc1ccc(NC(C#N)c2ccccc2OCc2ccccc2)cc1 (configuration not stated), the binding response (% of control) was inactive: 102%.
For CCOc1ccc(-n2c(-c3ccccc3)c[n+]3c2CCC3)cc1, the binding response (% of control) was inconclusive: 97.2%.
O=C(O)c1ccccc1C(=O)N1CCc2c([nH]c3ccccc23)C1C(F)(F)F (configuration not stated) was tested, and the binding response (% of control) was inconclusive: 143%.
With O=C(CSc1n[nH]c(=O)[nH]c1=O)N/N=C/C=C\c1ccccc1 the binding response (% of control) was inactive: 105%.
O=C(CCCN1C(=O)/C(=C/c2ccccc2Cl)SC1=S)NNC(=O)c1ccc(Cl)cc1 was tested, and the binding response (% of control) was inconclusive: 118%.
Cn1c(SCc2cccnc2)nc2c(c1=O)SCC2 was tested, and the binding response (% of control) was inconclusive: 72.4%.
With Cc1ccc(NC2=NC(c3ccc(F)cc3)n3c(nc(C)cc3=O)N2)c(C)c1 (configuration not stated) the binding response (% of control) was inconclusive: 148%.
COc1ccc(CCNC(=O)CCCNC(=O)Cn2cnc3sc(C)c(C)c3c2=O)cc1OC was tested, and the binding response (% of control) was inconclusive: 85.1%.
C/C(=N\O)c1ncc(C(F)(F)F)cc1Cl was tested, and the binding response (% of control) was inactive: 95.4%.
In the case of CCOC(=O)N1CCC(NC(=O)c2ccc(N3CCC4(CC3)OCCO4)c([N+](=O)[O-])c2)CC1, the binding response (% of control) was inactive: 101%.
CCc1cc2c(N3CCCCC3)ncnc2s1 was tested, and the binding response (% of control) was inactive: 108%.
In the case of Cn1cc(C(=O)c2cccc(Cl)c2)cc1/C=N\O, the binding response (% of control) was inconclusive: 92%.
With COc1ccc(NC(=O)COC(=O)CC2CC3CCC2C3)c([N+](=O)[O-])c1 (configuration not stated) the binding response (% of control) was inactive: 99.5%.
For CC(C)N1CCC(N2CCN(Cc3ccc(C#CC(C)(C)O)s3)CC2CCO)CC1 (configuration not stated), the binding response (% of control) was active: 275% [activator].
For COc1cc(/C=N/n2nnnc2N)cc(OC)c1OC, the binding response (% of control) was inconclusive: 87.9%.
In the case of Cn1nc(C(F)(F)F)cc1-c1ccc(S(N)(=O)=O)s1, the binding response (% of control) was inconclusive: 141%.
COc1ccc(C(=O)NCCn2ccc3ccccc32)c(OC)c1 was tested, and the binding response (% of control) was inactive: 98.7%.
With NC(=O)COC(=O)c1ccc(NS(=O)(=O)c2ccc3c(c2)OCCO3)cc1 the binding response (% of control) was inconclusive: 113%.
For COC(=O)C1=C(C)N(Cc2ccc(OC)cc2)C(=O)/C1=C\c1ccco1, the binding response (% of control) was inconclusive: -409%.
For COC(=O)c1ccccc1N=Nc1c(C)[nH][nH]c1=O, the binding response (% of control) was inconclusive: 148%.
CCN(Cc1ccncc1)C(=O)c1cc(Br)cc(Br)c1O was tested, and the binding response (% of control) was inactive: 103%.
In the case of COc1ccc(C2CC(O)(c3ccccc3)Oc3cc(OC)c(OC)c(OC)c32)cc1 (configuration not stated), the binding response (% of control) was inconclusive: 79.7%.
Cc1nc(C(C)N(C)Cc2nc(Cc3ccccc3F)no2)c(C)s1 (configuration not stated) was tested, and the binding response (% of control) was inconclusive: 61.5%.
CCC[N+](CC#CCO)(CC#Cc1ccccc1)CCC was tested, and the binding response (% of control) was inconclusive: 103%.
CCOC(=O)C1CCCN(C(=O)C(C)Oc2ccc(Cl)cc2Cl)C1 (configuration not stated) was tested, and the binding response (% of control) was inactive: 102%.
In the case of O=C(CCNc1n[nH]c(=O)[nH]c1=O)N/N=C/c1ccccc1Br, the binding response (% of control) was inconclusive: 107%.
For Cc1noc(C)c1COC(=O)c1ccc(N(C)C)cc1, the binding response (% of control) was inactive: 98.8%.
With Cc1ccc(CC2C(=O)N(c3nc(C)cc(C)n3)C(=O)C2C)cc1 (configuration not stated) the binding response (% of control) was inactive: 99.2%.
For C=CCn1c(O)c(C=Nc2ccc(CN3CCCCC3)cc2)c(=O)[nH]c1=S, the binding response (% of control) was inconclusive: 90%.
For COc1cc(/C=C/C(=O)OCC(=O)Nc2ccc(S(N)(=O)=O)cc2)ccc1O, the binding response (% of control) was inconclusive: 98.5%.
CCCn1c(=O)[nH]c(=O)c2c(C(=O)OCC)cc(-c3cccs3)nc21 was tested, and the binding response (% of control) was inconclusive: 95.8%.
CCc1ccc(NC(=S)NCc2cccnc2)cc1 was tested, and the binding response (% of control) was inconclusive: 68.4%.
In the case of CC(C)CCn1c(CN2CCN(c3cccc(Cl)c3)CC2)nc2c1c(=O)n(C)c(=O)n2C, the binding response (% of control) was inconclusive: -2.98%.
In the case of O=C(N/N=C/c1ccncc1)NC12CC3CC(CC(C3)C1)C2, the binding response (% of control) was inconclusive: 100%.
Cc1ccc(NS(=O)(=O)c2cc(NC(=O)c3ccc4c(c3)NC(=O)CS4)ccc2C)c(C)c1 was tested, and the binding response (% of control) was inconclusive: 102%.
For CC/C(=C(/CC)c1ccc(O)cc1)c1ccc(O)cc1, the binding response (% of control) was inconclusive: 98%.
In the case of C/C(=N/N1CCN(Cc2cccc3ccccc23)CC1)c1ccco1, the binding response (% of control) was inconclusive: 109%.
NC(=O)SC/C(=N\S(=O)(=O)c1ccccc1)Nc1ccccc1 was tested, and the binding response (% of control) was active: 268% [activator].
Cc1ccc2c(-c3ccc([N+](=O)[O-])cc3)cc(=O)[nH]c2c1 was tested, and the binding response (% of control) was inconclusive: -115%.
In the case of Cc1ccc2cc3c(nc2c1)N(c1ccccc1)CC3, the binding response (% of control) was inconclusive: 68.5%.
With O=C(O)CSc1nc2c(c(C(F)(F)F)n1)CCCC2 the binding response (% of control) was inconclusive: 5.43%.
In the case of COc1cc2c(cc1OC)C(c1cccs1)N(C(=O)c1cccnc1)CC2 (configuration not stated), the binding response (% of control) was inconclusive: 81%.
With CCc1ccc(NC(=S)NC2CC3CCCC(C2)N3Cc2ccccc2)cc1 (configuration not stated) the binding response (% of control) was inconclusive: 115%.
With Cc1ccc(-c2nc3c(=O)n(-c4ccccc4)c4c(c(=O)n(C)c(=O)n4C)c3o2)cc1 the binding response (% of control) was inconclusive: 107%.
CCCCc1nnc(NC(=O)CSc2nc(=O)cc(N)n2-c2cccc(C)c2)s1 was tested, and the binding response (% of control) was inactive: 104%.
CCOc1ccc2cc(C3CC(c4ccco4)=NN3S(C)(=O)=O)c(Cl)nc2c1 (configuration not stated) was tested, and the binding response (% of control) was inconclusive: 159%.
CNC(=O)CC1C(=O)N(c2ccc(OC)cc2)C(=S)N1NC(=O)c1cccc(F)c1 (configuration not stated) was tested, and the binding response (% of control) was inconclusive: 160%.
COc1cccc(NC(=O)c2ncc(Cl)c(Cl)c2Cl)c1 was tested, and the binding response (% of control) was inconclusive: 109%.
For O=C(C1=C(O)C(=O)N(CCOCCO)C1c1cccc([N+](=O)[O-])c1)c1cccs1 (configuration not stated), the binding response (% of control) was inconclusive: 430%.
In the case of CC(/C=N/n1c(COc2ccccc2)n[nH]c1=S)=C\c1ccco1, the binding response (% of control) was inconclusive: -99.7%.
NC(=O)c1oc2ccccc2c1NC(=O)c1ccccc1 was tested, and the binding response (% of control) was inactive: 98.3%.
In the case of COc1ccc([N+](=O)[O-])cc1NC(=O)COC(=O)c1ccccc1O, the binding response (% of control) was inconclusive: 472%.
